Source: US20130053430A1, “MODULATION OF CETP EXPRESSION” (Isis Pharmaceuticals, Inc., priority 2010, published 2013)
Some results were stated once for a whole list of compounds, not compound by compound. Strand notation (5' to 3'): a small letter for the sugar, then the base; units joined by * are phosphorothioate-linked, units joined directly phosphodiester-linked; [ ] holds rarer units or linkages, { } end groups; capitals alone tell only the bases. e = 2'-O-(2-methoxyethyl) (MOE); [5mC] = 5-methylcytosine; d = 2'-deoxy (DNA)

Tested on: human CETP mRNA
Test: Antisense inhibition of human CETP mRNA in SW872 liposarcoma cells (Example 1)
Format: cell-based
Conditions: thresholds (at least 60-90%) stated, summarising Table 3
Experimental: Antisense oligonucleotides targeted to a CETP nucleic acid were tested for their effect on CETP mRNA transcript in vitro. Cultured SW872 liposarcoma cells at a density of 50,000 cells per well in a 24-well plate were transfected using lipofectin reagent with 150 nM antisense oligonucleotide. After approximately 24 hours, RNA was isolated from the cells and CETP mRNA levels were measured by quantitative real-time PCR. A human primer probe set (forward sequence […], designated herein as SEQ ID NO: 38; reverse sequence GGCTCACGCCTTTGCTGTT, designated herein as SEQ ID NO: 39; probe sequence […], designated herein as SEQ ID NO: 40) was used to quantitate CETP mRNA. CETP mRNA transcript levels were adjusted according to total RNA content, as measured by the house-keeping gene, GAPDH mRNA levels. GAPDH was measured using a primer probe set with the sequence as set forth in SEQ ID NOs: 10, 11, 13. Results are presented as percent inhibition of CETP, relative to untreated control cells.
The antisense oligonucleotides in Table 3 are 5-10-5 gapmers, where the gap segment comprises ten 2′-deoxynucleosides and each wing segment comprises five 2′-MOE nucleosides. Each nucleotide in the 5′ wing segment and each nucleotide in the 3′ wing segment has a 2′-MOE modification. The internucleoside linkages throughout each gapmer are phosphorothioate (P═S) linkages. […]

Substance: ISIS 349510: 5-10-5 MOE gapmer TCTAGCTCAAGCTCTGGAGG (eT*e[5mC]*eT*eA*eG*d[5mC]*dT*d[5mC]*dA*dA*dG*d[5mC]*dT*d[5mC]*dT*eG*eG*eA*eG*eG)
- inhibition of a CETP mRNA: ≥ 60%
